Entries after “also recorded” stand apart in the source; their conditions may differ.
Test: Sweetening power and taste
Conditions: relative to saccharose

O=C(CO)[C@H](O)[C@@H](O)[C@H](O)CO [sorbose]
sweetening power: pronounced sweet taste comparable to that of saccharose; also recorded: substantially the same sweetening power as saccharose
